Reference: publication PMC5630306
These are yes or no findings as the source states them, for the method shown. For part of these data: Binding seen in cells or lysates may run through a third protein. Some entries that bind do so weakly or less than the wild type.

By UniProt entry, the sequences of proteins in these tests, tags left out. Where a name states a change or a piece, a line headed by the entry shows the natural chain unless it says otherwise.
UniProt Q6UN15: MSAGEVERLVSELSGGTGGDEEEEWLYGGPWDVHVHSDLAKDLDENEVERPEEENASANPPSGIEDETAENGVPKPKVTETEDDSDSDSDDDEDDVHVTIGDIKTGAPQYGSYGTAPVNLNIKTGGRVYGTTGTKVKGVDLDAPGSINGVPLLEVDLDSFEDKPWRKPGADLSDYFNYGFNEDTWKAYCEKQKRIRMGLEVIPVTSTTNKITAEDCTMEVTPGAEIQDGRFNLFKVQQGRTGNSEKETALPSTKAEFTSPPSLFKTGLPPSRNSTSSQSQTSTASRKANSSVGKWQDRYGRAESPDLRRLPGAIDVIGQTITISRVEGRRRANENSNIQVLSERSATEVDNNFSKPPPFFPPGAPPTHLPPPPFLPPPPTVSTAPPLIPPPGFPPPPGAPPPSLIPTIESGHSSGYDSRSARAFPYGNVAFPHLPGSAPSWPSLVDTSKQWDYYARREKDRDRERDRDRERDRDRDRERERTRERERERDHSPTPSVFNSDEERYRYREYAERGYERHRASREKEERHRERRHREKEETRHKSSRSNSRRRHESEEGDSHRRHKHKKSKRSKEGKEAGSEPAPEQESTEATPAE
UniProt Q62120: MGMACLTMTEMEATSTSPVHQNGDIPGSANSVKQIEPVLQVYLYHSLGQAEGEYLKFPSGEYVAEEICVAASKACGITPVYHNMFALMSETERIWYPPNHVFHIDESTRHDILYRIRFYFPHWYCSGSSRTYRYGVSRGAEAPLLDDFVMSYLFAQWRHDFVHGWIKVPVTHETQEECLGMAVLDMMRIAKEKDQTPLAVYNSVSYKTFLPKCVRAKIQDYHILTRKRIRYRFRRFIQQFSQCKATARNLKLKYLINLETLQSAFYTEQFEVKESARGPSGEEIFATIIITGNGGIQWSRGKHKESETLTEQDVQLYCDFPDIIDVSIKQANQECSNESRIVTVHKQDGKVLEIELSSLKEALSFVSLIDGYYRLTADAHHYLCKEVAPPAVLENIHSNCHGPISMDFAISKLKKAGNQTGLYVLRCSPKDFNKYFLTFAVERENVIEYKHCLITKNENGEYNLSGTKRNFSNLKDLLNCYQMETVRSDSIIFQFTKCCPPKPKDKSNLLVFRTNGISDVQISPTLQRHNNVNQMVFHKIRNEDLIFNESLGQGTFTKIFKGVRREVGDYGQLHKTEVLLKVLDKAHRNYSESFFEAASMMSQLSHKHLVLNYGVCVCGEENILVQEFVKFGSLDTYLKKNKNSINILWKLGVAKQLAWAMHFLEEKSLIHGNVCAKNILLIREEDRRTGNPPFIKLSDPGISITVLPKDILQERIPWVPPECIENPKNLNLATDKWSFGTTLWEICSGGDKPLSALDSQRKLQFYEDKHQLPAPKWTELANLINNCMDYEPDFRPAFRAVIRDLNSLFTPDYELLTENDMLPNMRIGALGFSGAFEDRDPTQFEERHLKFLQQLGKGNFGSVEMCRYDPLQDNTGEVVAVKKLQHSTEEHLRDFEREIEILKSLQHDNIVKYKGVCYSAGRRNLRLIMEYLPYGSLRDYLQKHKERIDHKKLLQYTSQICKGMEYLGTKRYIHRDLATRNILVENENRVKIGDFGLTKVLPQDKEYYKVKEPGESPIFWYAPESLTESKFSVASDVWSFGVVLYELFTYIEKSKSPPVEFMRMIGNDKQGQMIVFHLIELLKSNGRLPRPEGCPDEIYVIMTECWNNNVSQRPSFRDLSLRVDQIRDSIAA
UniProt P25911: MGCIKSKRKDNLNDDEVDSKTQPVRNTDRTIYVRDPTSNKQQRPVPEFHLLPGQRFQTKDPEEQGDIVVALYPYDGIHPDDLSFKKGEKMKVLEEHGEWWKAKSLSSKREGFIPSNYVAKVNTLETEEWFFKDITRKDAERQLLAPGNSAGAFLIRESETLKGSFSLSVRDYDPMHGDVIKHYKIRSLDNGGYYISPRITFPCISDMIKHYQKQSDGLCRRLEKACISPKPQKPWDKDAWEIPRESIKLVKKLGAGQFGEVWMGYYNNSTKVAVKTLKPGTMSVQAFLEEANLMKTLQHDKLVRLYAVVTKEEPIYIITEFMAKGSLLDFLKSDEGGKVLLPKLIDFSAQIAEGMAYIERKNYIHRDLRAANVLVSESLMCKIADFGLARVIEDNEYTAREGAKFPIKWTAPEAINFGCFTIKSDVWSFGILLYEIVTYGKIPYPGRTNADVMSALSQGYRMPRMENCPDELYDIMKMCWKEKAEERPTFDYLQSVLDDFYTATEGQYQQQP
UniProt P07948: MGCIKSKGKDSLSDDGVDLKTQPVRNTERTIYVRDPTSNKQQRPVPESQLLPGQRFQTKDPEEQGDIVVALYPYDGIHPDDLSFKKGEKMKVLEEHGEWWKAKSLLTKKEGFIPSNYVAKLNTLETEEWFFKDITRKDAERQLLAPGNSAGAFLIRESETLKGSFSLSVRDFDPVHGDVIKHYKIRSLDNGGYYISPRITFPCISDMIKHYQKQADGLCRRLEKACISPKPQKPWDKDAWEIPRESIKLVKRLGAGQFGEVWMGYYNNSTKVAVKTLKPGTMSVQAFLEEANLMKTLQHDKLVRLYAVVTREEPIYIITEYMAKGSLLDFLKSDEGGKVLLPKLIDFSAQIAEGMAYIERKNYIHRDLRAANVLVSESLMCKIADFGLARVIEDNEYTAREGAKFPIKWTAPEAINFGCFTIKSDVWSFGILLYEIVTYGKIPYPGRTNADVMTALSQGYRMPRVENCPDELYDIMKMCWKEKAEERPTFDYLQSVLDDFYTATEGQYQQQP

Tests used:
[1] = target: FIP1L1-PDGFRA fusion protein (UniProt Q6UN15); test: co-IP; detergent lysates of 32D cells (in IL-3) and F/P(+) 32D cells precipitated with anti-F/P (anti-PDGFRA), anti-JAK2 or anti-Lyn and protein A-agarose; Western blot with the same antibodies
[2] = target: Janus kinase 2 (JAK2) (mouse (endogenous in 32D)) (UniProt Q62120); test: as above
[3] = target: FIP1L1-PDGFRA fusion protein (UniProt Q6UN15); test: SEC; detergent lysate of F/P(+) 32D cells on Superose 6 prep grade; 30 mM HEPES pH 7.4, 150 mM NaCl, 10% glycerol, 0.5% NP-40; fractions blotted; network size estimated between 2 and 6 million
[4] = target: Lyn (mouse (endogenous in 32D)) (UniProt P25911); test: co-IP; detergent lysates of 32D cells (in IL-3) and F/P(+) 32D cells precipitated with anti-F/P (anti-PDGFRA), anti-JAK2 or anti-Lyn and protein A-agarose; Western blot with the same antibodies
[5] = target: Lyn (human (endogenous in EOL-1)) (UniProt P07948); test: co-IP; EOL-1 cells starved overnight, left unstimulated or stimulated with 5 ng/mL IL-5 (5 min or the indicated times) or 25 ng/mL IL-3 at 37°C; lysates precipitated with anti-Lyn; blot with anti-phosphotyrosine 4G10

Molecule: Lyn (from UniProt P25911 1-512) (enzyme)
- binding [1]: binds
- binding [2]: binds
- binding [3]: binds

Molecule: FIP1L1-PDGFRA fusion protein (from UniProt Q6UN15 1-233; P16234 567-1089) (enzyme)
- binding [2]: binds
- binding [4]: binds

Molecule: Janus kinase 2 (JAK2) (from UniProt Q62120 1-1132) (enzyme)
- binding [1]: binds
- binding [4]: binds
- binding [3]: binds

B1: IL-5 receptor α (IL-5RA), tyrosine-phosphorylated (receptor, UniProt Q01344 21-420)
chain: DLLPDEKISLLPPVNFTIKVTGLAQVLLQWKPNPDQEQRNVNLEYQVKINAPKEDDYETRITESKCVTILHKGFSASVRTILQNDHSLLASSWASAELHAPPGSPGTSIVNLTCTTNTTEDNYSRLRSYQVSLHCTWLVGTDAPEDTQYFLYYRYGSWTEECQEYSKDTLGRNIACWFPRTFILSKGRDWLAVLVNGSSKHSAIRPFDQLFALHAIDQINPPLNVTAEIEGTRLSIQWEKPVSAFPIHCFDYEVKIHNTRNGYLQIEKLMTNAFISIIDDLSKYDVQVRAAVSSMCREAGLWSEWSQPIYVGNDEHKPLREWFVIVIMATICFILLILSLICKICHLWIKLFPPIPAPKSNIKDLFVTTNYEKAGSSETEIEVICYIEKPGVETLEDSVF
modifications: phosphotyrosine (sites not stated; detected with 4G10)
- binding [5]: binds
